Experimental data from patent US20260191749A1, “COMPOSITION AND PROCESS OF MAKING BIO-BASED UPCYCLED OILS IN FLOW REACTORS” (RiKarbon, Inc., priority 2022, published 2026).

Assay: Bio-based carbon, ASTM D6866-21 Method B (AMS)
Assay type: physicochemical

Row | SMILES | Bio-based carbon
1 | CCCCCCCCCCCC(CCCCC)CCCCC [RKBA-22] | 100%
2 | CCCCCCC(CCCCC)CCCCC [RKBA-17] | 100%
